Data as given in PubChem BioAssay AID743121 (NCATS, 2013)
Test: 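Partners whose loss is lethal together with topoisomerase I blockade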 (primary screen). Cells: MDA-MB-231 cells, a human breast cancer line. Reagent: single siRNA against human genes, 20 nM siRNA (0.8 pmol per well). Timing: 120 h (drug added 48 h after transfection, read 72 h later). Challenge: camptothecin 20 nM (about EC30) for 72 h; vehicle 0.1% DMSO in parallel plates. Detection: 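Cell viability by ATP luminescence (CellTiter-Glo) as % of non-targeting siRNA wells, and the log2 ratio of viability without drug over viability with camptothecin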. Direction: log2 vehicle/camptothecin viability: higher = stronger sensitisation to camptothecin; viability with camptothecin and viability without drug: higher = more viable cells. Hit rule: 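Active genes have an RSA gene-level p-value below 0.001, computed from the ratios of their separate siRNAs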.
Shown is a random part of about 26,000 deposited reagents. 167 of all reagents (0.63%) were called active. 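Calls are per gene from RSA p-values that are not deposited; an individual active-marked siRNA can sensitise only weakly.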

gene	PubChem SID	log2 vehicle/camptothecin viability	viability with camptothecin (% of control)	viability without drug (% of control)	Outcome
TSSK4	SID164614886	0.263	92.1	111	inactive
TSSK4	SID164614887	-0.358	67.5	52.7	inactive
TSSK4	SID164614888	-0.189	81.6	71.5	inactive
TSSK4	SID164614889	0.553	58.6	86	inactive
TSSK4	SID164614891	0.125	98.1	107	inactive
TSSK4	SID164614893	-0.315	70.9	57	inactive
TSSK4	SID164614894	0.161	64.5	72.2	inactive
ABCA9	SID164410471	-0.0075	88.5	88	inactive
ABCA9	SID164410472	-0.241	87.2	73.8	inactive
ABCA9	SID164410473	-0.385	26.7	20.4	inactive
ABCA9	SID164410474	-0.291	106	86.6	inactive
PHF12	SID164495527	-0.0604	36.2	34.7	inactive
PHF12	SID164495529	0.29	56.7	69.4	inactive
PHF12	SID164495533	0.347	28.2	35.8	inactive
PHF12	SID164495534	-0.0396	108	105	inactive
HES1	SID164370049	-0.4	65	49.3	inactive
HES1	SID164370051	-0.271	78.9	65.4	inactive
HES1	SID164370052	-0.372	61.6	47.6	inactive
HES1	SID164370054	-0.513	70.8	49.7	inactive
NUDT9	SID164476380	-0.172	74.1	65.8	inactive
NUDT9	SID164476383	0.397	15.9	20.9	inactive
NUDT9	SID164476385	0.292	74.5	91.2	inactive
NUDT9	SID164476386	-0.229	72.2	61.6	inactive
DCHS2	SID164480523	-0.0107	110	109	inactive
DCHS2	SID164480528	0.298	84	103	inactive
DCHS2	SID164480530	-0.813	80.2	45.7	inactive
DCHS2	SID164480531	0.00097	32.9	32.9	inactive
NTF4	SID164378554	-0.0133	46.5	46	inactive
NTF4	SID164378555	-0.00506	65.7	65.4	inactive
NTF4	SID164378558	-0.011	106	105	inactive
NTF4	SID164378559	0.138	87.9	96.7	inactive
SGCG	SID164387819	-0.211	83.1	71.8	inactive
SGCG	SID164387820	-0.125	86.3	79.1	inactive
SGCG	SID164387824	-0.108	111	103	inactive
LIPF	SID164398098	-0.422	47.8	35.7	inactive
LIPF	SID164398100	-0.142	111	101	inactive
LIPF	SID164398102	-0.264	54.9	45.7	inactive
LIPF	SID164398103	0.166	82.8	93	inactive
SLIT3	SID164388753	-0.469	65.7	47.5	inactive
SLIT3	SID164388755	-0.319	55.5	44.4	inactive
SLIT3	SID164388756	-0.148	92.9	83.9	inactive
SLIT3	SID164388757	-0.047	91	88.1	inactive
SDC1	SID164387433	-0.446	49.6	36.4	inactive
SDC1	SID164387434	-0.306	73.2	59.2	inactive
SDC1	SID164387437	-0.668	60.5	38.1	inactive
SDC1	SID164387438	0.0527	67.6	70.1	inactive
NEK9	SID164551353	-1.21	54.5	23.5	inactive
NEK9	SID164551354	-0.0806	49.3	46.7	inactive
NEK9	SID164551359	-0.192	98.1	85.8	inactive
BIRC8	SID164559334	0.419	56.1	75	inactive
BIRC8	SID164559335	-0.0744	87.6	83.2	inactive
BIRC8	SID164559336	-0.435	134	98.9	inactive
BIRC8	SID164559338	-0.534	66.5	45.9	inactive
COQ6	SID164471229	-0.149	112	101	inactive
COQ6	SID164471231	-0.0144	94.1	93.2	inactive
COQ6	SID164471232	-0.162	99.2	88.6	inactive
COQ6	SID164471233	0.0219	30.2	30.7	inactive
TGM7	SID164562905	-0.036	84.7	82.6	inactive
TGM7	SID164562909	-0.0358	94.8	92.4	inactive
TGM7	SID164562910	0.0243	98.6	100	inactive
LPAR1	SID164362590	-0.502	87.7	61.9	inactive
LPAR1	SID164362595	-0.547	81.8	56	inactive
LPAR1	SID164362596	0.121	43.3	47.1	inactive
LPAR1	SID164362597	-0.222	95.5	81.9	inactive
AGO3	SID164584325	-0.458	77.2	56.2	inactive
AGO3	SID164584327	-0.478	46.6	33.4	inactive
AGO3	SID164584328	-0.0503	78	75.3	inactive
AGO3	SID164584329	-0.0923	99.1	93	inactive

Individual results from above.
Result of TSSK4 [SID164614887] under “Outcome”: inactive
Entry for HES1 [SID164370052] under “log2 vehicle/camptothecin viability”: -0.372
For “Outcome”, AGO3 [SID164584325] is entered as inactive
For “viability with camptothecin (% of control)”, SDC1 [SID164387434] is entered as 73.2
LPAR1 [SID164362596], Outcome: inactive
For “Outcome”, DCHS2 [SID164480528] has inactive
